These are yes or no findings as the source states them, for the method shown. Binding seen in cells or lysates may run through a third protein. Binding calls can cover weak binding; strength is not graded here.
Target: FLAG-tagged Krüppel-homologue 1 (brown planthopper, full-length CDS) (brown planthopper, Nilaparvata lugens)
Experiment: co-IP; 293T cells co-transfected with FLAG- and HA-tagged constructs; lysate precipitated with anti-FLAG antibody beads; Western blot

binding: binds
Substance: HA-tagged E93 (brown planthopper, full-length CDS) (from UniProt A0A2H4G0R5)

Reference: paper PMC6566557
